Test results taken from the supplement of paper PMC11348887.
Structures can show the parent of a compound that is named as a salt. The list shows a part of the results. Most entries show no effect beyond the scatter of the controls.

test system: hPSC-derived cortical neurons (WA09); assay: nucleus roundness z-score vs screen plate; higher = rounder nuclei (more mature); conditions: 5 µM; treatment: days 7-14 after plating, readout day 21

Row | SMILES | nucleus roundness z-score
1 | CNC[C@H](O)[C@@H](O)[C@H](O)[C@H](O)CO [Meglumine] | 0.179
2 | NNc1nncc2ccccc12 [Hydralazine HCl] | -0.0192
3 | C[C@@H](N)[C@H]1CC[C@H](C(=O)Nc2ccncc2)CC1 | 0.114
4 | CNC(=O)c1cc(Oc2ccc(NC(=O)Nc3ccc(Cl)c(C(F)(F)F)c3)cc2)ccn1 [Sorafenib] | -2.02
5 | O=S(=O)(O)CCSSCCS(=O)(=O)O [Dimesna] | 0.69
6 | CCOC(=O)C1=C(C)NC(C)=C(C(=O)OCC)C1c1ccccc1/C=C/C(=O)OC(C)(C)C [Lacidipine] | -0.204
7 | CC(=O)c1cc([N+](=O)[O-])c(Sc2ccc(F)cc2F)s1 | 0.414
8 | CS(=O)(=O)c1ccc([C@@H](O)[C@@H](CF)NC(=O)C(Cl)Cl)cc1 [Florfenicol] | -0.00376
9 | COC(=O)[C@H](c1ccccc1Cl)N1CCc2sccc2C1 [Clopidogrel] | -0.229
10 | COc1ccnc(C[S+]([O-])c2nc3cc(OC(F)F)ccc3[nH]2)c1OC (stereo not given) [Pantoprazole sodium] | 0.0847
11 | CCOC(=O)c1ncn2c1CN(C)C(=O)c1cc(F)ccc1-2 [Flumazenil] | 0.4
12 | COCC(=O)NC/C=C/c1ccc2ncnc(Nc3ccc(Oc4ccc(C)nc4)c(C)c3)c2c1 | -0.973
13 | CN(C)[C@@H]1C(O)=C(C(N)=O)C(=O)[C@@]2(O)C(O)=C3C(=O)c4c(O)cccc4[C@@](C)(O)[C@H]3C[C@@H]12 [Tetracycline HCl] | 0.848
14 | Cc1cc(C)nc(NS(=O)(=O)c2ccc(N)cc2)n1 [Sulfamethazine] | 0.236
15 | CC(C)C[C@H](NC(=O)[C@H]1O[C@@H]1C(=O)O)C(=O)NCCCCN=C(N)N | -0.692
16 | O=C(/C=C/c1ccc(CN(CCO)CCc2c[nH]c3ccccc23)cc1)NO [LAQ824 (Dacinostat)] | -3.7
17 | Nc1cc(C(F)(F)F)c(-c2cc(N3CCOCC3)nc(N3CCOCC3)n2)cn1 [BKM120 (NVP-BKM120_ Buparlisib)] | -0.417
18 | COc1cc(F)c(F)c(Nc2ccc(I)cc2F)c1NS(=O)(=O)C1(C[C@H](O)CO)CC1 [Refametinib (RDEA119_ Bay 86-9766)] | -0.479
19 | CC[C@H]1OC(=O)[C@H](C)[C@@H](O[C@H]2C[C@@](C)(OC)[C@@H](O)[C@H](C)O2)[C@H](C)[C@@H](O[C@@H]2O[C@H](C)C[C@H](N(C)C)[C@H]2O)[C@](C)(OC)C[C@@H](C)C(=O)[C@H](C)[C@@H](O)[C@]1(C)O [Clarithromycin] | 1.12
20 | Nc1nc(N)c(N=O)c(OCC2CCCCC2)n1 | -0.758

Row | SMILES | nucleus roundness z-score
21 | COCCOc1nc(-c2ccc(Cl)c(Cl)c2)n(-c2ccc(NC(=O)CCl)cc2)n1 [MI-2 (MALT1 inhibitor)] | -4.14
22 | CC(=O)Oc1cc2c(s1)CCN(C(C(=O)C1CC1)c1ccccc1F)C2 (stereo not given) [Prasugrel Hydrochloride] | 0.54
23 | C[N+]1(C)CCC(=C(c2ccccc2)c2ccccc2)CC1 [Diphemanil Methylsulfate] | 0.376
24 | FC(F)(F)C(Cl)Br (stereo not given) [Halothane] | 0.798
25 | CC(C)(CCCCCC(O)CCCCCC(C)(C)C(=O)O)C(=O)O | 0.931
26 | COC(=O)Nc1nc2cc(C(=O)c3ccc(F)cc3)ccc2[nH]1 [Flubendazole] | -0.985
27 | CC1CCc2cc(F)cc3c(=O)c(C(=O)O)cn1c23 (stereo not given) [Flumequine] | 0.106
28 | COc1ccc(C[C@@H]2c3cc(OC)c(OC)cc3CC[N@+]2(C)CCC(=O)OCCCCCOC(=O)CC[N@@+]2(C)CCc3cc(OC)c(OC)cc3[C@H]2Cc2ccc(OC)c(OC)c2)cc1OC [Cisatracurium Besylate] | -0.753
29 | C=CC(C)(C)c1cc(/C=C/C(=O)c2ccc(O)cc2)c(OC)cc1O [Licochalcone A] | 0.702
30 | CN1[C@@H]2CC[C@H]1C[C@@H](OC(c1ccccc1)c1ccccc1)C2 [Benztropine mesylate] | -0.405
31 | CNC(=O)c1cc(Oc2ccc(NC(=O)Nc3ccc(Cl)c(C(F)(F)F)c3)cc2)ccn1 [Sorafenib Tosylate] | -0.886
32 | CC1=C(C(=O)Nc2cc3cn[nH]c3cc2F)C(c2ccc(C(F)(F)F)cc2)CC(=O)N1 (stereo not given) | 0.555
33 | NC(=S)N/N=C/c1ncccc1N [Triapine] | -0.171
34 | O=C(OCC(O)CO)c1ccccc1Nc1ccnc2cc(Cl)ccc12 (stereo not given) [Glafenine HCl] | 1.97
35 | Brc1c(NC2=NCCN2)ccc2nccnc12 [Brimonidine Tartrate] | -0.164
36 | Nc1nc(NC2CC2)cc(-c2cccc(Cl)c2Cl)n1 | -1.92
37 | O=C1C(=O)N(Cc2ccc(Cl)c(Cl)c2)c2ccccc21 [Apoptosis Activator 2] | -0.441
38 | Cn1cc(-c2ccncc2)c(-c2ccc(OCc3ccc4ccccc4n3)cc2)n1 | 0.763
39 | O=C(CCCCCCC(=O)Nc1ccccc1)NO [Vorinostat (SAHA_ MK0683)] | -3.58
40 | O=S(=O)(N=Cc1c(O)ccc2ccccc12)c1cccs1 | 0.0521

2 records drawn at random from those above:
Row | SMILES | nucleus roundness z-score
32 | CC1=C(C(=O)Nc2cc3cn[nH]c3cc2F)C(c2ccc(C(F)(F)F)cc2)CC(=O)N1 (stereo not given) | 0.555
39 | O=C(CCCCCCC(=O)Nc1ccccc1)NO [Vorinostat (SAHA_ MK0683)] | -3.58
